Results on 24 molecules are retold here after the supplement of paper PMC12009310.

Counter-ions that a name gives are not always drawn. ± gives the standard deviation of the averaged measurements. This is one part of the list. Plates or batches differ in their baseline, so values are only roughly comparable.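 The cells are a mouse kidney inner medullary collecting duct line, silenced either for the ciliary gene Rpgrip1l or with a non-targeting control siRNA.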 Where a SMILES comes first, the peptide text is derived from it. [ ]: non-standard residue; d: D form.

The subject of the assay is mIMCD3. The assay is described as follows: robust z score of cilia incidence (% cells with single cilium) vs plate controls; higher = more ciliated cells (rescue of cilia loss). The conditions noted are these: 10 µM; 48 h; siRNA: siRpgrip1l.
For `O=C(O)C1=CCCNC1` [Guvacine hydrochloride], the “robust z score of cilia incidence” value was -6.25 ± 2.9.
`CN(C)C/C=C(/c1ccc(Br)cc1)c1cccnc1` [Zimelidine dihydrochloride]: the “robust z score of cilia incidence” value was -13.8 ± 7.7.
As for `Oc1ccc(-c2nc(-c3ccc(F)cc3)c(-c3ccncc3)[nH]2)cc1`, the “robust z score of cilia incidence” value is -22.8 ± 6.5.
With `CCCCCCCCCCCC1=C(O)C(=O)C=C(O)C1=O` [Embelin] the figure was -8.31 ± 6.2.
With `CCCCOC(=O)c1cc2c(cn1)[nH]c1ccccc12` the figure was -29.7 ± 19; with `COc1ccc(Nc2nccc(NCCO)n2)cc1` [Cardiogenol C hydrochloride], -10.1 ± 3.8; with `C=CCc1cccc(/C=N/NC(=O)CN2CCN(Cc3ccccc3)CC2)c1O`, -48.5 ± 14.
As for `CC[C@H](C)C(=O)O[C@H]1C[C@H](O)C=C2C=C[C@H](C)[C@H](CC[C@@H](O)C[C@@H](O)CC(=O)O)[C@H]21` [Pravastatin sodium salt], the “robust z score of cilia incidence” value was -9.76 ± 4.2.
As to `CCOC(=O)C1=C(COCCN)NC(C)=C(C(=O)OC)C1c1ccccc1Cl` (centres undefined) [Amlodipine besylate], the “robust z score of cilia incidence” value is -58.2 ± 4.8.
With `CN1CCN(C2=Nc3cc(Cl)ccc3Nc3ccccc32)CC1` [Clozapine] the figure was -11.6 ± 7.9; with `O=C1Cc2c([nH]c3ccc(Br)cc23)-c2ccccc2N1` [Kenpaullone], -31.4 ± 10.
With `Cc1ccc(O)c(N=Nc2ccccc2)n1` the figure was -13.5 ± 1.3; with `Cc1c(CC(C)(C)C(=O)O)n(Cc2ccc(Cl)cc2)c2ccc(F)cc12`, -46.3 ± 40.
For the molecule `CC[N+](CC)(CC)CCOc1ccc(/C=C/c2ccccc2)cc1`, the “robust z score of cilia incidence” value is -11.5 ± 3.1.
Then `CCOC(=O)c1ccc(OC(=O)CCCCCNC(=N)N)cc1` [Gabexate mesylate], with -27.1 ± 25.
Then `CC(=O)NCC(=O)N[C@H](CCC(=O)O)C(=O)O` [N-Acetylglycyl-D-glutamic acid] (Ac-Gly-[dE]-OH), with -7.54 ± 8.4; and `Cc1ccc(/C=C2\CNC/C(=C\c3ccc(C)cc3)C2=O)cc1`, with -58 ± 6.
Turning to `CCc1cc(-c2n[nH]c(C)c2-c2ccc3c(c2)OCCO3)c(O)cc1O`, the “robust z score of cilia incidence” value is -34.4 ± 17.
With `CNc1cc(OC)c(C(=O)NC2CCN(Cc3ccccc3)C2C)cc1Cl` (centres undefined) [Nemonapride] the figure was -119 ± 110.
Consider `COc1ccc2[nH]cc(CCNC(C)=O)c2c1` [Melatonin], for which the “robust z score of cilia incidence” value was -7.96 ± 2.8.
As for `CCCCN1CCC(CCC(=O)c2cc(Cl)c(N)cc2OC)CC1`, the “robust z score of cilia incidence” value is -23.5 ± 3.3.
Then `CC(C)NCC(O)COc1cccc2ccccc12` (centres undefined) [Propranolol hydrochloride], with -8.41 ± 4.6.
With `Cn1ccc2cc(NC(=O)Nc3cccnc3)ccc21` the figure was -5.87 ± 1.4; with `COc1ccc(NC(=O)c2ccc(-c3ccc(-c4noc(C)n4)cc3C)cc2)cc1N1CCN(C)CC1`, -555 ± 330.
